According to article PMC6387943:
These are yes or no findings as the source states them, for the method shown. Binding calls can cover weak binding; strength is not graded here. Tags and fused reporters may be left off the sequences shown. For some assays here: Binding seen in cells or lysates may run through a third protein.

What was measured:
[1] = target: SAP30 FUNCTION-RELATED 1 (AFR1), GAL4 DNA-binding domain fusion (Arabidopsis thaliana); assay: two-hybrid; BD Matchmaker system; GAL4 BD-AFR (pGBKT7) and GAL4 AD-LNK (pGADT7) cotransformed into yeast AH109; interaction read by cell growth on selective medium (-LWHA)
[2] = target: SAP30 FUNCTION-RELATED 2 (AFR2), GAL4 DNA-binding domain fusion (Arabidopsis thaliana); assay: as above
[3] = target: AFR1-nYFP (Arabidopsis thaliana); assay: split reporter; BiFC: AFR-nYFP and LNK-cYFP cotransformed into Arabidopsis protoplasts; reconstituted YFP fluorescence by confocal microscopy; IDD14-RFP as nuclear marker
[4] = target: AFR2-nYFP (Arabidopsis thaliana); assay: as above

B1: NIGHT LIGHT-INDUCIBLE AND CLOCK-REGULATED 1 (LNK1), GAL4 activation domain fusion (protein, UniProt A8MQN2 1-616)
chain: MSDLYIHELGDYLSDEFHGNDDGIVPDSAYEDGGQFPILVSNRKKRRNDDMGSGTNHLKSNTFIKREANMLGKNPWPEKDSGGSSVSRDTGTGKDVQDMTLEDTNTSDHGFNGGHVDVVENFSTGDPMLCDTSAATNDGVYNYSLNSIPDAENDLSFFDNGDKEKNDLFYGWGDIGNFEDVDNMLRSCDSTFGLDSLNNEGDLGWFSSAQPNEETAGAMTDDLKPDKMLENQRTAMLQVEDFLNNSEPNHAVEDEYGYTIEDDSAQGKSSQNVFDTSLQKKDILMLDVEANLEKKQTDHLHHLDGKSDGFSENSFTLQHSGISREIMDTNQYYPPSAFQQRDVPYSHFNCEQPSVQVSACESKSGIKSENKPSPSSASNESYTSNHAQSIESLQGPTVDDRFRKVFETRANLLPGQDMPPSFAANTKKSSKTDSMVFPDAAPIQKIGLENDHRKAATELETSNMQGSSCVSSVVDDISLEATSFRQLQQVIEQLDVRTKLCIRDSLYRLAKSAEQRHHGGNRPEKGAGSHLVTGEADKYAGFMDIETDTNPIDRSIAHLLFHRPSDSSLSSDNNVLSYKSHPMIPQPNSSPSLRIEKQEETTELRPEAEVVTSDNN
- binding [1]: binds
- binding [2]: binds

B2: NIGHT LIGHT-INDUCIBLE AND CLOCK-REGULATED 2 (LNK2), GAL4 activation domain fusion (protein, UniProt F4JCX9 1-663)
chain: MFDWEEEELTNMIWGDDAETGDHIVPFKVRSEQLNKKEQIEESKTAEQKITGTKIDLHDKNLGSSSSHNVDEGLPQPDFCMSSWPDTSLTNATKVDQDLSATELSKCLAEPVRYDSTRGGAFLLKQSCFTWVRSFQSNHFKSCVLTLFLPEKTSELGKGPDIFHSSDESKEQGDFDDYSWANIGSFDDLDRMFSDGFAAMMSLYLVMAVSAVVMSYGHLLKITEFEQQENQQFPLTGKANGLSSQSVPSVRVTLKADQYREHKGQPSVEDQPYQQNKMMKFSKMPGTSEARPFQELYGQRIPFSNSAGKCVNQLAPPQSSLMAVNLLSESEGSGTSHYSHMPNQYMANSAFGNLANPYSSVPVISAVQHPDVRNQLMHPSYNPATATSVNMATDASARPSTMTPQEKLEKLRRRQQMQAMLAIQRQQQQFSHQVPVADQSITQNCLQDIPLQLVDKTNLQGLTAMPSFDPSSSLEQDDSGKFAAAVDNSAEFAVLYRLQDVVAKLDMGTRTCIRDSLFRLAGSAAQRHYTSDTSHSNKTSQDDQEVIPREESRYRYAGMPDTEAVTNPTDRTVAHLLFHRPFDMLAAKRMEGPESPASSKMGTEEKGNFPKCSIRETHLTKQKAQKEEGPADSLALGNAPNSGSSSTVGERVVEASQGNKRKL
- binding [1]: binds
- binding [2]: binds

B3: LNK1-cYFP (protein, UniProt A8MQN2 1-616)
chain: B1 chain
- binding [3]: binds
- binding [4]: binds

B4: LNK2-cYFP (protein, UniProt F4JCX9 1-663)
chain: B2 chain
- binding [3]: binds
- binding [4]: binds
